Assay results published in PMC7655957.
Where a chain is given by its changes, count along the chain named. Names may count otherwise. Results are given in words; binding and its absence hold for the method and conditions named. For some assays here: Where a sequence is shown, tags or fusion partners need not be part of it.

The chains behind the UniProt entries cited, without tags or fusion partners.
UniProt Q9Y6G9: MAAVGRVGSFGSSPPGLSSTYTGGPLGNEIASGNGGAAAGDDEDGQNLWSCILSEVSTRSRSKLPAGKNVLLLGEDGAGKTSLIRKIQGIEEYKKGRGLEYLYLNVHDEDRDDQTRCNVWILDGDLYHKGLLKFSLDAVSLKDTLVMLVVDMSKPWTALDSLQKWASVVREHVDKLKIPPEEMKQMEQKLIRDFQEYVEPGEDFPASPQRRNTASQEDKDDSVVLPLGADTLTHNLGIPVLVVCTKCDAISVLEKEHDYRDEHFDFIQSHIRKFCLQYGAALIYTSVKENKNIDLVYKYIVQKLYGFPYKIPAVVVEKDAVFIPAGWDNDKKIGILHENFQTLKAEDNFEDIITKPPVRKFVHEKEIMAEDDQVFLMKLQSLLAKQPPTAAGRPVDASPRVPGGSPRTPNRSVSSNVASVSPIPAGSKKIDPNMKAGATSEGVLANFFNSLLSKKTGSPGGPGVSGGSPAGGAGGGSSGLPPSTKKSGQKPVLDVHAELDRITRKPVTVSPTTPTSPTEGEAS

B1: MBP-CRACR2a_(47–122), EF-hand pair of calcium release-activated calcium channel regulator 2A (domain or fragment, UniProt Q9BSW2-1 47-122)
chain: GQLVMLRKAQEFFQTCDAEGKGFIARKDMQRLHKELPLSLEELEDVFDALDADGNGYLTPQEFTTGFSHFFFSQNN
B2: CRACR2a_(47–122) F58D (domain or fragment, UniProt Q9BSW2-1 47-122)
chain: B1 chain with F12D

Legend:
[1] = target: MBP-LIC1FL, full-length dynein light intermediate chain-1 (human) (UniProt Q9Y6G9); experiment: ITC; EF-hand pairs titrated into MBP-LIC1FL; 20 mM HEPES (pH 7.5), 100 mM NaCl, 0.5 mM TCEP, 5 mM EGTA; 20 or 30 °C; both purified
[2] = target: MBP-LIC1FL, full-length dynein light intermediate chain-1 (human) (UniProt Q9Y6G9); experiment: ITC; EF-hand pairs titrated into MBP-LIC1FL; 20 mM HEPES (pH 7.5), 100 mM NaCl, 0.5 mM TCEP, 5 mM CaCl2; 20 or 30 °C; both purified

Binder | binding [1] | binding [2]
B1 | no binding (condition: with 5 mM EGTA) | –
B2 | – | no binding
